These are yes or no findings as the source states them, for the method shown. Binding seen in cells or lysates may run through a third protein. Some entries that bind do so weakly or less than the wild type.
Assays:
Experiment in all cases: co-IP
[1] = target: HA-Sti1 (stress inducible phosphoprotein 1) (UniProt Q60864)
[2] = target: TDP-43, endogenous in SN56 cells (mouse (endogenous in SN56)) (UniProt Q921F2)
TDP-43-GFP = TDP-43-GFP (UniProt Q13148)

## TDP-43 (transactive response element DNA/RNA binding protein of 43 kDa) (from UniProt Q13148 1-414)
[1]
  binding: binds

## Sti1, endogenous in SN56 cells (from UniProt Q60864 1-543)
[2]
  binding: binds

## Sti1 tagged with an HA epitope (mouse Sti1) (from UniProt Q60864 1-543)
TDP-43-GFP
  binding: binds
